Reference: PubChem BioAssay AID504444 (National Center for Advancing Translational Sciences (NCATS), 2011)
Where “and” joins values, the source holds several entries; their conditions need not be identical. Equal entries are not always repeated. Among all 360,000 compounds or so, about 7,500 (2.1%) were called active. The shares of active, inactive and inconclusive entries below differ from those in the screen. Calls follow the shape of the dose curve; as a rule, active = well fitted inhibition curve with a large enough effect; inconclusive = small, poorly fitted or top-dose-only effect, or effect the other way; inactive = flat fitted curve, though single readings scatter. Potencies beside an inconclusive call are fits to weak or partial responses and may not hold up.

Experiment: Nrf2 qHTS screen for inhibitors; also: nearly all actives have a fitted effect of over 60% in size
Conditions: A549 ARE-Fluc reporter, luciferase luminescence, 18-24 h; series mostly up to 46 µM
In short: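 In this cell-based qHTS, ARE-driven firefly luciferase in A549 cells reports Nrf2 activity; the luminescent signal after BugLite lysis is the measured value, with a prior CellTiter-Fluor read for cell health.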
Potency is read from the fitted curve at half-maximal effect.

| Structure (SMILES) | Potency |
| --- | --- |
| Clc1cccc2sc(N3CCCCC3)nc12 | inconclusive: 18.4 µM [activator, partial curve] |
| COc1ccc(NC(=O)Cc2cccc(F)c2)cc1S(=O)(=O)Nc1ccccc1Cl | inconclusive: 25.9 µM [falling, single point] |
| COc1ccc(-c2csc(NC(=O)C3=COCCO3)n2)c(OC)c1 | inconclusive: 23.1 µM [activator, single point] |
| Cc1cn(C(=O)c2ccccc2)c(=S)n1-c1ccc(Br)cc1 | inconclusive: 29.1 µM [falling, single point] |
| NC(=O)CC(NC(=O)c1ccc(Br)cc1)c1ccc(NCc2ccc(F)cc2)c([N+](=O)[O-])c1 (stereo not drawn) | inconclusive: 29.1 µM [falling, single point] |
| O=C(CCCN1C(=O)c2cccc3cccc(c23)C1=O)N1CCc2ccccc2C1 | inconclusive: 7.31 µM [falling, partial curve, poor fit] |
| COc1c(Cl)ccc(Cl)c1C(=O)NC(=O)Nc1nc(C)cc(C)n1 | inconclusive: 13 µM [falling, partial curve] |
| Cc1ccc(NC(=O)CCC(=O)N2Cc3ccccc3Oc3ncccc32)c(C)c1 | inconclusive: 20.6 µM [activator, partial curve] |
| COc1ccc(C(=O)Nc2cc3c(cc2N2CCCCC2)n(C)c(=O)n3C)cc1OC | inconclusive: 20.6 µM [falling, partial curve, poor fit] |
| O/N=C/c1ccc(OCc2ccccc2F)c(Cl)c1 | inconclusive: 5.8 µM [activator, partial curve, poor fit] |
| NC(=O)COc1ccc(/C=N\NC(=O)c2ccc(-c3ccccc3)cc2)cc1 | inactive |
| CN(c1ccccc1)S(=O)(=O)c1cccc(NC(=O)c2cccc(C#N)c2)c1 | inconclusive: 29.1 µM [falling, single point] |
| CCN(CCS(=O)(=O)c1ccc(Cl)cc1)Cc1nc2ccccc2c(=O)[nH]1 | inactive |
| CC1(C)CC2(CC(c3ccccc3)Oc3cc(O)ccc32)NC(=S)N1 (stereo not drawn) | inactive |
| CCc1ccc(/C=C2\Oc3ccc(C(=O)OC)cc3C2=O)cc1 | inconclusive: 6.51 µM [activator, full curve] |
| COc1ccc(-n2nnnc2C2CCN(S(=O)(=O)c3ccc(NC(C)=O)cc3)CC2)cc1 | active: 9.2 µM |
| O=S(=O)(NCc1c(Cl)cccc1Oc1ccccc1)c1ccc(F)cc1 | inconclusive: 11.6 µM [falling, single point] |
| CCOC(=O)Cc1csc(NC(=O)c2ccc(S(=O)(=O)N3CCOCC3)cc2)n1 | inconclusive: 29.1 µM [falling, partial curve, poor fit] |
| O=C(Cc1ccccc1)NNC(=S)NC(=O)c1cccs1 | inconclusive: 18.4 µM [falling, partial curve] |
| CCN(c1cccc(C)c1)S(=O)(=O)c1cc(CN2C(=O)c3cccnc3C2=O)ccc1OC | inactive |
| CC(C)c1ccc(C2NC(=O)c3n[nH]c(-c4cccs4)c32)cc1 (stereo not drawn) | inconclusive: 20.6 µM [falling, partial curve] |

| Structure (SMILES) | Potency |
| --- | --- |
| CCC(=O)Oc1ccc(NC(=O)c2ccco2)cc1 | inconclusive: 29.1 µM [activator, single point] |
| CCOc1ccc(CCNC(=O)CS(=O)(=O)Cc2nc(-c3ccc(OC)cc3)oc2C)cc1 | inconclusive: 13 µM [falling, partial curve, poor fit] |
| COc1cccc(OCCn2cc(C=O)c3ccccc32)c1 | inactive |
| CCc1ccc(NC(=O)Nc2cnccn2)cc1 | inconclusive: 18.4 µM [activator, partial curve] |
| COC(=O)c1ccc(Oc2ccc3nnc(C)n3n2)cc1 | inconclusive: 0.58 µM [falling, partial curve, poor fit] |
| COc1ccc(-n2nc3cc(N)c(Br)cc3n2)cc1 | inconclusive: 6.51 µM [activator, partial curve] |
| O=[N+]([O-])c1cc(C(F)(F)F)cc([N+](=O)[O-])c1NCCNC(=S)Nc1cccc(F)c1 | inconclusive: 29.1 µM [falling, single point] |
| Cc1ccccc1OCc1nc2ccccc2c(=O)n1/N=C/c1cn[nH]c1-c1ccccc1 | inconclusive: 5.8 µM [falling, partial curve, poor fit] |
| CC1CN(S(=O)(=O)c2cccc3nsnc23)CC(C)O1 (stereo not drawn) | inconclusive: 4.11 µM [falling, single point] |
| Cc1cc(OCC(=O)NCC(c2cccs2)N2CCOCC2)ccc1C(C)C (stereo not drawn) | inconclusive: 25.9 µM [falling, partial curve, poor fit] |
| COc1ccc(-c2nc(CSCC(=O)N3CCN(c4cc(Cl)ccc4C)CC3)c(C)o2)cc1 | active: 7.31 µM |
| Cc1ccc(C)c(NS(=O)(=O)c2ccc(OCC(=O)N3CCCC3)cc2)c1 | inconclusive: 23.1 µM [falling, partial curve, poor fit] |
| COC(=O)[C@@]12CCCCN1[C@H](c1ccc(-c3cc(C(C)=O)cs3)cc1)[C@H]1C(=O)N(C)C(=O)[C@H]12 | inconclusive: 23.1 µM [falling, single point] |
| O=C(CCS(=O)(=O)c1ccc(Cl)cc1)NCCN1C(=O)S/C(=C\c2ccccc2F)C1=O | inactive |
| COc1ccc(-n2ncc3c(=O)n(CC(=O)Nc4ccc(S(=O)(=O)N5CCOCC5)cc4)cnc32)cc1 | inconclusive: 29.1 µM [falling, partial curve, poor fit] |
| CC(=O)N1CCc2cc(S(=O)(=O)CCC(=O)Nc3ccc(C)cc3Br)ccc21 | inactive |
| CCc1ccc(CNc2ccc3c(c2)ncn3C(C)(C)C)cc1 | inconclusive: 20.6 µM [activator, partial curve, poor fit] and inconclusive: 29.1 µM [activator, single point] |
| Cc1cccc(NS(=O)(=O)c2ccc3c(c2)CC(C)N3C(=O)C2CCC2)c1C (stereo not drawn) | inconclusive: 29.1 µM [falling, single point] |
| COc1ccc(CN2CCn3nc(C(=O)NC(C)C)cc3C2=O)cc1 | inactive |
| CCOc1ccc(NC(=O)c2ccccc2OCC(=O)c2ccccc2)cc1 | inconclusive: 29.1 µM [falling, single point] |
| CCOc1ccc(N2CC(c3nc4ccccc4n3CCOc3ccccc3OC)CC2=O)cc1 (stereo not drawn) | inconclusive: 29.1 µM [falling, single point] |

| Structure (SMILES) | Potency |
| --- | --- |
| O=C(Nc1ccccc1Cc1ccccc1)c1ccccc1NS(=O)(=O)c1ccc(Cl)s1 | active: 18.4 µM |
| Cc1cc(NC(=O)CSc2nc(C3CC3)nc3sc4c(c23)CCC(C)C4)no1 (stereo not drawn) | inconclusive: 1.64 µM [activator, full curve] |
| S=c1[nH]nc(COc2ccccc2)n1/N=C/c1ccncc1 | inconclusive: 29.1 µM [falling, single point] |
| CN1C(C(=O)NCc2ccc(OC(F)(F)F)cc2)CC2Cn3c(nc4cc(Cl)c(Cl)cc43)C21 (stereo not drawn) | inconclusive: 32.6 µM [falling, single point] |
| Cn1nnnc1Sc1ncnc2scc(-c3ccccc3Br)c12 | active: 20.6 µM |
| COCCNc1nnnc2c1sc1nc(N3CCOCC3)c3c(c12)CC(C)(C)OC3 | inconclusive: 0.206 µM [falling, full curve, poor fit] |
| CN(Cc1ccccc1)C(=O)COC(=O)c1cc(NS(=O)(=O)c2cccs2)ccc1O | inconclusive: 29.1 µM [falling, single point] |
| O=S(=O)(NCCC1=CCCCC1)c1ccc(Br)cc1 | inconclusive: 25.9 µM [falling, partial curve, poor fit] |
| FC(F)(F)c1cc(Sc2ccccc2)nc(-c2ccccn2)n1 | inconclusive: 18.4 µM [falling, partial curve, poor fit] |
| CCOc1ccc(-n2nc3ccc(N)cc3n2)cc1 | inconclusive: 14.6 µM [falling, partial curve] |
| CC(C)CC(=O)NC(=S)Nc1ccc(N2CCOCC2)c(Cl)c1 | inconclusive: 32.6 µM [falling, partial curve, poor fit] |
| COc1ccc(-c2cc(=O)[nH][nH]2)cc1OC | inconclusive: 18.4 µM [falling, partial curve, poor fit] |
| S=C(N/N=C/c1cccs1)NC1CC2CCC1C2 (stereo not drawn) | inactive |
| Cc1ccc2cc(C#N)c(N3CCCN(S(=O)(=O)c4ccc(F)cc4)CC3)nc2c1 | inconclusive: 25.9 µM [falling, partial curve] |
| COc1ccc(Cn2cc3c(-c4ccc(F)cc4)nnc-3c3cc(OC)c(OC)cc32)cc1 | inconclusive: 29.1 µM [falling, single point] |
| Cc1ccc(CN2CCN(Cc3cnn(-c4ccc(F)cc4)c3)CC2CCO)o1 (stereo not drawn) | inconclusive: 0.731 µM [activator, partial curve, poor fit] |
| CC(c1ccccn1)N(CCN(C)C)C(=S)Nc1cccc(F)c1 (stereo not drawn) | inconclusive: 0.0041 µM [falling, full curve, poor fit] |
| Nc1c(N(C(=O)Nc2ccc(Cl)c(Cl)c2)C2CCCC2)c(=O)[nH]c(=O)n1Cc1ccccc1 | inconclusive: 25.9 µM [falling, single point] |
| CCCCc1cc(=O)oc2cc(C)cc(OC(C)C(=O)O)c12 (stereo not drawn) | inactive |
| COc1ccc(C(=O)CCN2CCN(c3ccc(OC)cc3)CC2)cc1 | inactive |
| COCCn1c(=S)[nH]c2cc(C(=O)N3CCN(Cc4ccc5c(c4)OCO5)CC3)ccc2c1=O | inconclusive: 6.51 µM [falling, full curve, poor fit] |

Molecules from the list above with an aryl thioether with sulfur outside any ring:

| Structure (SMILES) | Potency |
| --- | --- |
| Cc1cc(NC(=O)CSc2nc(C3CC3)nc3sc4c(c23)CCC(C)C4)no1 (stereo not drawn) | inconclusive: 1.64 µM [activator, full curve] |
| Cn1nnnc1Sc1ncnc2scc(-c3ccccc3Br)c12 | active: 20.6 µM |
| FC(F)(F)c1cc(Sc2ccccc2)nc(-c2ccccn2)n1 | inconclusive: 18.4 µM [falling, partial curve, poor fit] |
